From publication PMC4617175
These are yes or no findings as the source states them, for the method shown. In cells and extracts the contact can be indirect. Some entries that bind do so weakly or less than the wild type.

The chains behind the UniProt entries cited, without tags or fusion partners.
UniProt Q9JIS7: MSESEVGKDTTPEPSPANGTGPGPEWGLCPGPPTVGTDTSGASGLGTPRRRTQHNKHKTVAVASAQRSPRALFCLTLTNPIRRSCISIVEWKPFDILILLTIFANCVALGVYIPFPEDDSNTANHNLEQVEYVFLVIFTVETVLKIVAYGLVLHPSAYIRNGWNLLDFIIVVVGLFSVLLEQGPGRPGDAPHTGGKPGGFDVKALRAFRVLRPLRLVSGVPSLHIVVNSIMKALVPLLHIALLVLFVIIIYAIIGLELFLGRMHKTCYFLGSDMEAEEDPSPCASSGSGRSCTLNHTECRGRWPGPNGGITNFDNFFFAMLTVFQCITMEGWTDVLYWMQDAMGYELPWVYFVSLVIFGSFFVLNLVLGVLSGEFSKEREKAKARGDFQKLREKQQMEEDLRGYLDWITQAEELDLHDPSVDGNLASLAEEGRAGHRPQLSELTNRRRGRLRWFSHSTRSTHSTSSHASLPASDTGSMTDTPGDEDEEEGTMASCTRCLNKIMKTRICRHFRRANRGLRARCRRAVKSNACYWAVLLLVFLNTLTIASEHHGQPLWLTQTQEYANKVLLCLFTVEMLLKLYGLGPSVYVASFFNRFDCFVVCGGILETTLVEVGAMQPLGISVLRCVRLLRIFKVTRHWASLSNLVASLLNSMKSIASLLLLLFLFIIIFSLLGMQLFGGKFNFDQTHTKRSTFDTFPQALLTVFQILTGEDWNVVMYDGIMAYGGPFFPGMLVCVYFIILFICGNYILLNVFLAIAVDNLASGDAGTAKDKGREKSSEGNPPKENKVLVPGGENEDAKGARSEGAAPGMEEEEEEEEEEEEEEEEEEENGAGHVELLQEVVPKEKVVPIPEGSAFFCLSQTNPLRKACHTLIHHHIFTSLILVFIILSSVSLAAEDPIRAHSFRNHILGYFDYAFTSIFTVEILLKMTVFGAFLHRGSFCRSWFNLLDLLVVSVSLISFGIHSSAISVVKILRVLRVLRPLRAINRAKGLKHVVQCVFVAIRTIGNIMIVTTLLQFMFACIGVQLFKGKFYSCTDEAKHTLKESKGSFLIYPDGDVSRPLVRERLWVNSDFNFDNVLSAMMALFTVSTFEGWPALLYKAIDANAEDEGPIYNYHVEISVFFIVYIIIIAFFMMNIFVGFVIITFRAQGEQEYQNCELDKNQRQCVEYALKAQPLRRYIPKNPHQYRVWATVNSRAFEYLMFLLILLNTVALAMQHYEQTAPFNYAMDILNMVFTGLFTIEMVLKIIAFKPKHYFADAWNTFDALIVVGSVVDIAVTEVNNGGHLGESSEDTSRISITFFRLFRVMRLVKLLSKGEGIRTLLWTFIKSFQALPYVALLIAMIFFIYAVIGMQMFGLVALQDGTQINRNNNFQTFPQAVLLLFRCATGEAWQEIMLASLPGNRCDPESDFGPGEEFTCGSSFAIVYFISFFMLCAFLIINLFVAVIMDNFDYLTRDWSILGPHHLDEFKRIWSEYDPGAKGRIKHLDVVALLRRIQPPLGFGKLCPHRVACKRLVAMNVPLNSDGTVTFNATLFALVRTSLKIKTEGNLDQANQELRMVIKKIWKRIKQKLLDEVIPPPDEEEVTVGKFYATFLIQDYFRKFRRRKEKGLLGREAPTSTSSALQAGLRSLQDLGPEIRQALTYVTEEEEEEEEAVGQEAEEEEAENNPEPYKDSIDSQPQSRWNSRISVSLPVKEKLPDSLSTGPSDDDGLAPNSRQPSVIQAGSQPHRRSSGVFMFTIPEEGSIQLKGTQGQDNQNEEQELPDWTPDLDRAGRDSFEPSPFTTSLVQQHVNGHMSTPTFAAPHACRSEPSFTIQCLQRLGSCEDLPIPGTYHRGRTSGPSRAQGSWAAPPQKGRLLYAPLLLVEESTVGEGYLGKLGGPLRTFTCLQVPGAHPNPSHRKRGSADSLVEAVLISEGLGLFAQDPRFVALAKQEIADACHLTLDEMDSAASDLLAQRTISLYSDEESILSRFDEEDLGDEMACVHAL

Target: T1, murine TMEM16A expressed in tsA-201 cells (Ano1 clone in pCMV6-Kan/Neo) (mouse) (UniProt Q8BHY3)
T1 sequence: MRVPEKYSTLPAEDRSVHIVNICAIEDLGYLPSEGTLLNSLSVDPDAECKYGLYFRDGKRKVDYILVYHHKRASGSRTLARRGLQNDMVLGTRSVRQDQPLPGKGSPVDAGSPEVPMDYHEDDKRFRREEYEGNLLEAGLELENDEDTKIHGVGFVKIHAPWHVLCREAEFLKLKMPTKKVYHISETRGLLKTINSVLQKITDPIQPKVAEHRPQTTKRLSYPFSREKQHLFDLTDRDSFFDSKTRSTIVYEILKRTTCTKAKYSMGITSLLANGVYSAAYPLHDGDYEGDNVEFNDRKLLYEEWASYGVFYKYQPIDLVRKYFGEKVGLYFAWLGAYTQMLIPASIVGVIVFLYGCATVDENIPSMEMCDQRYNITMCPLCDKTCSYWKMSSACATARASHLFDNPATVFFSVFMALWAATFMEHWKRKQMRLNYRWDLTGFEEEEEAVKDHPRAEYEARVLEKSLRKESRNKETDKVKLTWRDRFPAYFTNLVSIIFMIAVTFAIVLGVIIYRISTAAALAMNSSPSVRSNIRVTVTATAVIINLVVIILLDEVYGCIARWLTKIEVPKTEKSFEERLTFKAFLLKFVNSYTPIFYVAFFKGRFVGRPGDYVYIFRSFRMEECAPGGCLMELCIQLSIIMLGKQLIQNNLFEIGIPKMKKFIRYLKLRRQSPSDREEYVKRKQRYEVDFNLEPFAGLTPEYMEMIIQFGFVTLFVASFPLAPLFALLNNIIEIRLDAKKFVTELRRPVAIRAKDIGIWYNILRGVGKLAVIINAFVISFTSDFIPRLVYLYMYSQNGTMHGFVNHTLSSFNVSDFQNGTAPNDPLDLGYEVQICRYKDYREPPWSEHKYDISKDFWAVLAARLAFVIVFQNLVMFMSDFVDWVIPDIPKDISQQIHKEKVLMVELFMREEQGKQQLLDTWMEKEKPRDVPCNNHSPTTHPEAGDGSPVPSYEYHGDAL
Test: co-IP; lysates of tsA-201 cells co-transfected with TMEM16A, Cav1.4, β2 and WT or mutant α2δ4; anti-TMEM16A antibody, protein G-agarose; buffer in which the VGCC subunits are dissociated; blots with anti-pan-α1 or anti-Cav1.4

In the case of “murine CaV1.4 expressed in tsA-201 cells (Cacna1f clone in pIRES2-mCherry) (from UniProt Q9JIS7 1-1985)”, the binding is reported as “binds”.
